# Hit rate of the full screen: of about 330,000 compounds, about 7,700 (2.3%) were called active. The inconclusive results got no clear call from the source; some entries with a clear call stand among them for comparison. The call rests on the fitted dose curve; in most records, active means well fitted inhibition curve with a large enough effect; inconclusive means small, poorly fitted or top-dose-only effect, or effect the other way; inactive means flat fitted curve, though single readings scatter. Potencies of inconclusive entries are doubtful fits and often do not repeat.
# Experiment: qHTS screen for small molecules that inhibit ELG1-dependent DNA repair in human embryonic kidney (HEK293T) cells expressing luciferase-tagged ELG1; further: nearly all actives have a fitted effect of over 55% in size
# Conditions: HEK293T ELG1-luciferase reporter, luminescence, 16 h, DNA damage induced by 5-fluorouridine; series mostly up to 46.1 µM
# Procedure, shortened: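 Cells (2,000 per well) received 5-fluorouridine plus test compound or DMSO and were incubated 16 hr at 37 °C, 5% CO2. Luciferase activity was read by luminescence 30 min after ONE-Glo addition; signal suppression marked inhibition of damage-induced ELG1 function.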
# Potency means the concentration at half of the fitted maximal effect.
row,SMILES,Potency
1,CC(OC(=O)CCC(=O)c1ccc(F)cc1)C(=O)NC1CCCCC1C (configuration not stated),inactive
2,CC1(C)CC(N2CCCC2)=CC(=[N+]2CCCCC2)C1,active: 1.16 µM
3,Cc1cc(Cl)ccc1OC(C)C(=O)Nc1cnn(CCCC(=O)O)c1 (configuration not stated),"inconclusive: 23.1 µM [activator, single point]"
4,O=C(NCC(=O)N1CCCC(C(F)(F)F)C1)c1ccccc1F (configuration not stated),"inconclusive: 11.6 µM [activator, single point]"
5,O=C(NCCc1c[nH]c2ccccc12)/C(=C\c1cccnc1)NC(=O)c1ccccc1F,"inconclusive: 23.1 µM [inhibitor, single point]"
6,O=C(c1cc2ccccc2o1)N1CCOCC1,inactive
7,O=C1C=C(NNC(=O)c2cccnc2)CC(c2ccco2)C1 (configuration not stated),inactive
8,CC(C)[C@H](NC(=O)c1ccccc1)C(=O)OCC(=O)NCC1CCCO1 (some centres not stated),"inconclusive: 16.4 µM [activator, single point]"
9,O=C(OCC(=O)N1CCN(C(=O)c2ccco2)CC1)c1cn(-c2ccccc2)nc1-c1ccccc1,"inconclusive: 29.1 µM [inhibitor, single point]"
10,Cc1c(C(=O)Nc2ccc3c(c2)OCCO3)cnn1C,"inconclusive: 9.2 µM [activator, partial curve]"
11,Cn1nc(C(F)(F)F)cc1C(=O)Nc1ccc(-c2ccno2)cc1,active: 13 µM
12,CCOC(=O)C1CCN(S(=O)(=O)C(F)(F)c2nc3ccccc3s2)CC1,"inconclusive: 20.6 µM [activator, single point]"
13,O=C(NCc1ccccn1)c1nc(-c2cccs2)no1,"inconclusive: 29.1 µM [activator, single point]"
14,COC(=O)N1CCc2c(sc(NC(=O)C3COc4ccccc4O3)c2C(N)=O)C1 (configuration not stated),"inconclusive: 4.61 µM [activator, partial curve, poor fit]"
15,COc1ccc(S(=O)(=O)N2c3cc(Cl)ccc3Oc3nc4ccccc4nc32)cc1,inactive
16,Cc1ccc(C(=O)O)cc1NC(=O)c1ccc2c(c1)C(=O)N(c1ccc([N+](=O)[O-])cc1)C2=O,inactive
17,Cc1ccc2cc(CN(CCO)Cc3nnnn3Cc3ccc(F)cc3)c(=O)[nH]c2c1,"inconclusive: 6.51 µM [inhibitor, partial curve]"
18,CN1CCN(C(=O)c2cnn(-c3ccccc3)c2NC(=O)c2ccccc2Cl)CC1,inactive
19,Cc1nc(Nc2ccc3c(c2)OCCO3)c2c(C)c(C)sc2n1,"inconclusive: 29.1 µM [inhibitor, single point]"
20,COc1ccc(NC(=O)c2cc3ccccn3n2)cc1,"inconclusive: 0.58 µM [activator, partial curve]"
21,CSC1=NC(C)N2C(SC)=NC(C)N12 (configuration not stated),inactive
22,O=C(COC(=O)CC1CC2CCC1C2)Nc1ccc(Cl)c(S(=O)(=O)N2CCOCC2)c1 (configuration not stated),inactive
23,Cc1ccc2oc(C(F)(F)C(F)F)cc(=O)c2c1,inactive
24,COc1ccc(NC(=O)C2CCCO2)cc1OC (configuration not stated),"inconclusive: 20.6 µM [activator, partial curve, poor fit]"

# Arranged by length of the SMILES (low to high): three of the compounds above
row,SMILES,Potency
21,CSC1=NC(C)N2C(SC)=NC(C)N12 (configuration not stated),inactive
24,COc1ccc(NC(=O)C2CCCO2)cc1OC (configuration not stated),"inconclusive: 20.6 µM [activator, partial curve, poor fit]"
22,O=C(COC(=O)CC1CC2CCC1C2)Nc1ccc(Cl)c(S(=O)(=O)N2CCOCC2)c1 (configuration not stated),inactive

# Additional compounds:

row,SMILES,Potency
1,CCCCOC(=O)c1ccc(NS(=O)(=O)c2cc(-c3nnnn3CC)ccc2OC)cc1,"inconclusive: 25.9 µM [inhibitor, single point]"
2,O=C(Cc1ccccc1Cl)NCc1cccnc1,"inconclusive: 32.6 µM [activator, partial curve, poor fit]"
3,N#Cc1nc(COc2cccc(Cl)c2)oc1N1CCN(c2ccccc2)CC1,inactive
4,O=C(Nc1ccc(Cl)cc1C(F)(F)F)c1ccccc1Cl,"inconclusive: 29.1 µM [activator, single point]"
5,CCOc1ccc(C(=O)Nc2c(C(=O)N3CCC(N4CCCCC4)CC3)oc3ccccc23)cc1,inactive
6,Cc1ccc(C(=O)CNc2ccccc2C)cc1,"inconclusive: 18.4 µM [activator, partial curve]"
7,CSc1ccccc1NC(=O)CCc1ccccc1,"inconclusive: 20.6 µM [activator, single point]"
8,Cc1ccccc1OC(C)C(=O)Nc1ccc2c(c1)OCCO2 (configuration not stated),"inconclusive: 23.1 µM [activator, single point]"
9,Cc1ccc(-n2nnnc2SCC(=O)Nc2ncc(Cc3ccccc3Cl)s2)cc1,"inconclusive: 6.51 µM [inhibitor, single point]"
10,CN(C(=O)CSc1nc(N)c2c3c(sc2n1)CSC(C)(C)C3)c1ccccc1,active: 20.6 µM
11,Cc1ccc(C)c(N2CCN(CCCNC(=O)Cn3cccc3C(=O)c3ccccc3C)CC2)c1,"inconclusive: 14.6 µM [inhibitor, single point]"
12,COc1ccc(C2c3[nH]c4ccccc4c3CCN2CCCn2cccn2)cc1C (configuration not stated),"inconclusive: 32.6 µM [inhibitor, partial curve, poor fit]"
13,COc1ccc2nc(NC(=O)c3ccoc3C)sc2c1,"inconclusive: 0.82 µM [activator, partial curve]"
14,O=[N+]([O-])c1ccc2nc(-c3ccccc3[N+](=O)[O-])[nH]c2c1,inactive
15,Cc1cc(C)n(CCC(=O)N/N=C/c2cccc([N+](=O)[O-])c2)n1,inactive
16,CCC1(c2ccccc2)NC(=O)N(CC(=O)Nc2ccc(N3CCOCC3)cc2)C1=O (configuration not stated),inactive
17,COc1ccc(Nc2nc(NCC3CCCO3)nc(N)c2[N+](=O)[O-])cc1 (configuration not stated),"inconclusive: 29.1 µM [inhibitor, single point]"
18,CCOC(=O)N1CCN(c2ccc(C(=O)c3cccc(F)c3)cc2)CC1,"inconclusive: 20.6 µM [inhibitor, partial curve, poor fit]"
19,COc1cccc2sc3ccc(C#CC4(N)CCCCC4)cc3c(=O)c12,"inconclusive: 18.3 µM [activator, single point]"
20,Cc1ccc(-c2nnc(N3CCC(C)CC3)c3ccccc23)cc1,inactive
21,CCOC(=O)N1CCN(CC(=O)Nc2nc3ccc(OC)cc3s2)CC1,active: 14.6 µM
22,COc1ccc(C(=O)NC2CCN(C(=S)NCCc3ccccc3)CC2)cc1,inactive
23,CCCn1nc(NC(=O)c2ccccn2)c2cc3cc(C)ccc3nc21,"inconclusive: 9.2 µM [inhibitor, partial curve]"

# From PubChem BioAssay AID504467 (National Center for Advancing Translational Sciences (NCATS), 2011)
